Test [1] deals with T1, GFP-Ric8A (UniProt Q3TIR3).
T1 sequence: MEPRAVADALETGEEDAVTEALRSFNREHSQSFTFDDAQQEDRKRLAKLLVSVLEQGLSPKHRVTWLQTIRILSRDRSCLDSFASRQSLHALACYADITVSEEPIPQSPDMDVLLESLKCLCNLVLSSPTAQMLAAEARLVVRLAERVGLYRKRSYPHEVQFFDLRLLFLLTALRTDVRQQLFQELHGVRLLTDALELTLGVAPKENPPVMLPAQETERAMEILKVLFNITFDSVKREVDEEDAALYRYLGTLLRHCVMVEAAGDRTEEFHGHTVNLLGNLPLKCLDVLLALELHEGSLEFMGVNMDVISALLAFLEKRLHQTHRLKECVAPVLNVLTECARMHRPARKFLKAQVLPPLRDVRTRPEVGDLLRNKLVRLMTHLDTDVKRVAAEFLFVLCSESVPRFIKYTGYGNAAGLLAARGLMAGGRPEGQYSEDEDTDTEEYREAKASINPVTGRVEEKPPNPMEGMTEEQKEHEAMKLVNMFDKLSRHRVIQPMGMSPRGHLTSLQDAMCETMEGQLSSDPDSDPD
Nature of the test: co-IP; Drosophila or human Gαo G203R with Drosophila GFP-Ric8 or mammalian GFP-Ric8A (Supplemental Figure 8A); cell line not stated.

By UniProt entry, the sequences of proteins in these tests, tags left out. Where a name states a change or a piece, a line headed by the entry shows the natural chain unless it says otherwise.
UniProt P16520: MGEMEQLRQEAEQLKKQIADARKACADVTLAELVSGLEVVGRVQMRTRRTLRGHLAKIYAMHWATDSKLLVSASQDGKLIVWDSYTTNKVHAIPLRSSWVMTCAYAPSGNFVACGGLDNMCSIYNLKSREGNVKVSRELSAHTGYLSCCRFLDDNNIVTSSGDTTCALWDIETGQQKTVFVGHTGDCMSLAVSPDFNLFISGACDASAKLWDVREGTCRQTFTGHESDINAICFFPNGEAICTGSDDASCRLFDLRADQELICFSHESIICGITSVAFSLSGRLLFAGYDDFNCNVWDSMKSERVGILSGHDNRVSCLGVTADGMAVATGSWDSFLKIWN
UniProt P16378: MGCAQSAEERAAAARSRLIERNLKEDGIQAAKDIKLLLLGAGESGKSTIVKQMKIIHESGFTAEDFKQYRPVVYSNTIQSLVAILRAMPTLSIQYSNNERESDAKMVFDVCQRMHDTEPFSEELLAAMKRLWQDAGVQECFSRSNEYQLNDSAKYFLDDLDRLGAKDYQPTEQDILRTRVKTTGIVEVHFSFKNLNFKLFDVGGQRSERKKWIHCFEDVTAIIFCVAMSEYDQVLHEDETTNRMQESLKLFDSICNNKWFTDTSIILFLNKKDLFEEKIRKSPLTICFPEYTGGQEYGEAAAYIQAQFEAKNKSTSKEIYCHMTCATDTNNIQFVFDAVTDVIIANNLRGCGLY
UniProt P29992: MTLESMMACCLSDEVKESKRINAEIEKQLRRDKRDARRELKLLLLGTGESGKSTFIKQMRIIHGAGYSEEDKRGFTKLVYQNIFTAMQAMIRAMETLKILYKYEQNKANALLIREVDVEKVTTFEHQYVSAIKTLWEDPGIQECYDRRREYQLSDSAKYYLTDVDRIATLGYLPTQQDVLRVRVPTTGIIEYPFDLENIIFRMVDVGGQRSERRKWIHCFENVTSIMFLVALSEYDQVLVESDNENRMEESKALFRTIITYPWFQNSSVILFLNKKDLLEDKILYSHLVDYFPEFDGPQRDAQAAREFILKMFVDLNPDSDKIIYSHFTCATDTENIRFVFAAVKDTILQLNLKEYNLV
UniProt Q14344: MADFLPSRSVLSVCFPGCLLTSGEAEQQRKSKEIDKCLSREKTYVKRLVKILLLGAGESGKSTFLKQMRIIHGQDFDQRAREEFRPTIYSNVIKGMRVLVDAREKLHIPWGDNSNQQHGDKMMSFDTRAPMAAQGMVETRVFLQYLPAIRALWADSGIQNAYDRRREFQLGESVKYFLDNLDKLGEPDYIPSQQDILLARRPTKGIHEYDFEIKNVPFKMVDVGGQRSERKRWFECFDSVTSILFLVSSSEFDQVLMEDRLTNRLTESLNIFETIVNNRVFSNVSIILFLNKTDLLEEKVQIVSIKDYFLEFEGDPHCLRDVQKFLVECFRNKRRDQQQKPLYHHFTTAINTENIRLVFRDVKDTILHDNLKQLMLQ
UniProt P63096: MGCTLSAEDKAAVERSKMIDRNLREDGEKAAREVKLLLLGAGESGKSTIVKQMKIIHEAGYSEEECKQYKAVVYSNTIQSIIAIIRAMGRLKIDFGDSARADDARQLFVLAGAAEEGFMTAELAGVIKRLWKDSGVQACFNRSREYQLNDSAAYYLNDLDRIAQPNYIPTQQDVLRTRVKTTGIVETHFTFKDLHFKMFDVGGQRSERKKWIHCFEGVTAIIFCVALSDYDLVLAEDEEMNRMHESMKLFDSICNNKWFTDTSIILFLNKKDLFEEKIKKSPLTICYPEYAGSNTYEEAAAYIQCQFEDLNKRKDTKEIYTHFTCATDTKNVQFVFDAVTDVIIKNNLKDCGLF
UniProt P09471: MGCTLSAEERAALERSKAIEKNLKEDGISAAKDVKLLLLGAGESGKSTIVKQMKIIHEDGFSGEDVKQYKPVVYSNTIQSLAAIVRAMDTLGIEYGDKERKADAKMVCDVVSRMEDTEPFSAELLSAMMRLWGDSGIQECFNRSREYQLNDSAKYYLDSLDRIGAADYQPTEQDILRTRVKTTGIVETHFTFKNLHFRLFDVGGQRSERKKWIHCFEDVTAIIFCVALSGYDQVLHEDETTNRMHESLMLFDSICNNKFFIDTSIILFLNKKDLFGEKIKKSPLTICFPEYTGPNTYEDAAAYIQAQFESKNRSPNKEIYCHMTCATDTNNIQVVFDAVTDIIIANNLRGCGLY
UniProt P38405: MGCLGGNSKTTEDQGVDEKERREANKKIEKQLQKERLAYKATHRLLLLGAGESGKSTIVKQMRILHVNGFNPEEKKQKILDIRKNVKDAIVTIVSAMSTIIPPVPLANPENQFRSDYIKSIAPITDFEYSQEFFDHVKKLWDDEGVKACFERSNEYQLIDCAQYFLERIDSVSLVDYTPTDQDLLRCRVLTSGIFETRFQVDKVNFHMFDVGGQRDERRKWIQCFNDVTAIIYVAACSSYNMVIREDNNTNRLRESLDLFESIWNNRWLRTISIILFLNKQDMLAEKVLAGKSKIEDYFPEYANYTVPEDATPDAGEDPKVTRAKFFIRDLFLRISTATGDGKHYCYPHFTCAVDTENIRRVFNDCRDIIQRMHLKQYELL
UniProt P50148: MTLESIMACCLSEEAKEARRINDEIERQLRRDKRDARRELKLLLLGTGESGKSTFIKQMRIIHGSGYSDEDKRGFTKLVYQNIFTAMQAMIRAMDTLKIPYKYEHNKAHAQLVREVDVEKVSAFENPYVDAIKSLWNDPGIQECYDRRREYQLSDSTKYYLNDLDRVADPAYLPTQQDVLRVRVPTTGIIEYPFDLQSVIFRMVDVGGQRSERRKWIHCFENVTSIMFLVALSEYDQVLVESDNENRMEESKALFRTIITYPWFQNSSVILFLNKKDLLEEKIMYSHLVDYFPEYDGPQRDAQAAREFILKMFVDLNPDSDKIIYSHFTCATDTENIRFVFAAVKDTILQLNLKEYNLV
UniProt P63092: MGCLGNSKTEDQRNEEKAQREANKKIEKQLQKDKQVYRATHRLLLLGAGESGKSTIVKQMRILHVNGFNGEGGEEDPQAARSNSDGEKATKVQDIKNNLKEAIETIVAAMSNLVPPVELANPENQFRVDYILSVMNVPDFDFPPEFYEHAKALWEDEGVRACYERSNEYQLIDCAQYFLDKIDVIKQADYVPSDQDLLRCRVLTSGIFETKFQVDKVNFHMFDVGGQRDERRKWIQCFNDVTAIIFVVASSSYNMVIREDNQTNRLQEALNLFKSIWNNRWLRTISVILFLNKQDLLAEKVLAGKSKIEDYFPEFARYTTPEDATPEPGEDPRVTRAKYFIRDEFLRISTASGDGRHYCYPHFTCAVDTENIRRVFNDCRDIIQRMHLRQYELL

Test [2] has as its target T2, Drosophila GFP-Ric8 (Drosophila) (UniProt Q9W358).
T2 sequence: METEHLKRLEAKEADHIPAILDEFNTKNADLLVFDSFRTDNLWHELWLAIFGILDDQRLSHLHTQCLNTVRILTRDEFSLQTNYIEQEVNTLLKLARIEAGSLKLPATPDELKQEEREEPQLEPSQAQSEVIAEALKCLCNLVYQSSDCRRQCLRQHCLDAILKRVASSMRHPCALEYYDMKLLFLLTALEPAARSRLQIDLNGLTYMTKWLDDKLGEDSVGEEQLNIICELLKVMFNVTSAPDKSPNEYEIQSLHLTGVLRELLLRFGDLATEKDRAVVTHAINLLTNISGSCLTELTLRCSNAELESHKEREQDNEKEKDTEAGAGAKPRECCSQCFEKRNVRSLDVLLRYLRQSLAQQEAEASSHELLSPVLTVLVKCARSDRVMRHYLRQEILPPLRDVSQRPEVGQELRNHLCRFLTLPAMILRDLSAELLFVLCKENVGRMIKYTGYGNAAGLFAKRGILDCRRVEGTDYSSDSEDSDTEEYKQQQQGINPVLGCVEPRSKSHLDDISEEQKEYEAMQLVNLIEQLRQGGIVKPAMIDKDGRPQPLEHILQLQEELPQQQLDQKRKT
The test is described as above.

The target in test [3] is T1, GFP-Ric8A. Description: co-IP; HEK293T cells cotransfected with GFP-Ric8A or GFP-Ric8B and a nontagged Gα subunit; IP with GST-tagged anti-GFP nanobody; Western blot. Background: Immunoblotting shows a protein as a band on a membrane.
For test [4], the target named is T3, GFP-Ric8B (UniProt Q80XE1).
T3 sequence: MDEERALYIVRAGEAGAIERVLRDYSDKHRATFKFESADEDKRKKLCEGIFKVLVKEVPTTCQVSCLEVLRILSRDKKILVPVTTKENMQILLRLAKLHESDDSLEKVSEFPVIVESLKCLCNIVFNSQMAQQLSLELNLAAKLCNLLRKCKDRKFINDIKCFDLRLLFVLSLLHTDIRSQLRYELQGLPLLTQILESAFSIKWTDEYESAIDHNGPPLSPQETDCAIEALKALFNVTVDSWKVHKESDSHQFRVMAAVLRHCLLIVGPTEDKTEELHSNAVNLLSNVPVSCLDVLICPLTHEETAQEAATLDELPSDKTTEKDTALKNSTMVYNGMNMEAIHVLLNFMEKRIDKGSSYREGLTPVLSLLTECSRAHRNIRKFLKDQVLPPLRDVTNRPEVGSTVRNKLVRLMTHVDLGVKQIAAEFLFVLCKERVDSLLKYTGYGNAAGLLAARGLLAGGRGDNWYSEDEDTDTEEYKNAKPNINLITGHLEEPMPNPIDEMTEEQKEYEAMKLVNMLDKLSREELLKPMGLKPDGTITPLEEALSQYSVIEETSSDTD
The description is as above.

The target in test [5] is T1, GFP-Ric8A. Nature of the test: co-IP; HEK293T cells cotransfected with GFP-Ric8A or GFP-Ric8B, a nontagged Gα subunit and wild-type Gαo, a Gαo mutant or empty plasmid (1 μg each); IP with GST-tagged anti-GFP nanobody; Western blot.
Test [6] deals with Gβ3γ9 with a Venus fusion (UniProt P16520). Nature of the test: FRET or BRET; Gβ3γ9 displacement: HEK293T cells cotransfected with Go1-CASE (NLuc-tagged Gαo, Gβ3, Venus-tagged Gγ9) and nontagged Gαo variant at 1:1; reduction in the BRET signal. For orientation: In BRET a luciferase serves as donor, and the signal depends on an acceptor being close.
The target of test [7] is T3, GFP-Ric8B. Nature of the test: co-IP; HEK293T cells cotransfected with GFP-Ric8A or GFP-Ric8B, a nontagged Gα subunit and wild-type Gαo, a Gαo mutant or empty plasmid (1 μg each); IP with GST-tagged anti-GFP nanobody; Western blot.
Test [8] deals with T1, GFP-Ric8A. Nature of the test: co-IP; N2a cells cotransfected with GFP-Ric8A (wild type, R75E or K225A) and nontagged Gαo variant; IP with GST-tagged anti-GFP nanobody; Western blot with anti-GFP and anti-Gαo (clone E1 or A2); also after 10 μM DDD85646.
The target in test [9] is T3, GFP-Ric8B. Nature of the test: co-IP; N2a cells cotransfected with GFP-Ric8B and nontagged Gαo variant; IP with GST-tagged anti-GFP nanobody; Western blot with anti-GFP and anti-Gαo (clone E1 or A2).

No constants are given. Whether binding was seen depends on the method and setting. Binding seen in cells or lysates may run through a third protein. Some binding calls cover weakened binding; strength is not graded here. For some of these results: Where a sequence is shown, tags or fusion partners need not be part of it.

26 substances from PMC11291268 can be followed below.

As for “Drosophila Gαo G203R (from UniProt P16378 1-354)”, the binding result in [1] and in test [2] was “binds” in each case.
Consider Gα11 (from UniProt P29992 1-359), for which the binding entry in test [3], in test [4] and in test [5] was “binds” in each case.
As to Gα13 (from UniProt Q14344 1-377), the binding entry in test [3] and in test [5] was “binds” each time.
Turning to Gαi1 (from UniProt P63096 1-354), the binding result in test [3] and in test [5] was “binds” each time.
Regarding Gαo-NLuc (from UniProt P09471 1-354), in test [6], the binding result is listed as “binds”.
Consider Gαolf (from UniProt P38405 1-381), for which the binding result in test [4] and in [7] was “binds” in each case.
On to Gαq (from UniProt P50148 1-359), for which the binding entry in test [3], in [4] and in test [5] was “binds” in each case.
On to Gαs (from UniProt P63092 1-394), for which the binding result in [4] and in test [7] was “binds” each time.
Regarding “nontagged Gαo A227V (from UniProt P09471 1-354)”, the binding entry in test [8] and in [9] was “binds” throughout.
In the case of “nontagged Gαo C215Y (from UniProt P09471 1-354)”, the binding result in [8] and in [6] was “binds” in each case.
Regarding “nontagged Gαo D174G (from UniProt P09471 1-354)”, the binding result was “binds” in [8], “binds weakly” in test [6] and “binds” in test [9].
Regarding “nontagged Gαo E237K (from UniProt P09471 1-354)”, the binding entry in test [8], in test [6] and in test [9] was “binds” throughout.
On to “nontagged Gαo E246K (from UniProt P09471 1-354)”, for which the binding result in [8], in test [6] and in test [9] was “binds” throughout.
For “nontagged Gαo F275S (from UniProt P09471 1-354)”, the results for the binding entry in test [8], in [6] and in test [9] were “binds”, “binds weakly” and “binds”, respectively.
“nontagged Gαo G40R (from UniProt P09471 1-354)”: the binding result in test [8] was “binds”; in test [6], “binds weakly”; in test [9] it was “binds”.
“nontagged Gαo G45E (from UniProt P09471 1-354)”: the binding entry in test [8] is recorded as “binds”; in test [6], “binds weakly”; in test [9], “binds”.
For “nontagged Gαo G203R (from UniProt P09471 1-354)”, the binding entry in test [8], in [6], in test [2] and in test [9] was “binds” in each case.
With “nontagged Gαo I279N (from UniProt P09471 1-354)”, the binding entry in test [8] and in [9] was “binds” throughout.
Regarding “nontagged Gαo L199P (from UniProt P09471 1-354)”, the binding entry in [8] and in test [9] was “binds” throughout.
For “nontagged Gαo N270H (from UniProt P09471 1-354)”, the figures for the binding result in [8], in test [6] and in [9] were “binds”, “binds weakly” and “binds”, respectively.
Take “nontagged Gαo Q205L (from UniProt P09471 1-354)”: in [8], the binding result is listed as “binds weakly”.
In the case of “nontagged Gαo Q233P (from UniProt P09471 1-354)”, the binding result in test [8], in test [6] and in [9] was “binds” in each case.
As to “nontagged Gαo R209C (from UniProt P09471 1-354)”, the binding entry in test [8], in test [6] and in [9] was “binds” throughout.
Consider “nontagged Gαo S47G (from UniProt P09471 1-354)”, for which the binding entry in test [8], in test [6] and in test [9] was “binds” throughout.
With “nontagged Gαo Y231C (from UniProt P09471 1-354)”, the binding entry in test [8] and in test [9] was “binds” in each case.
In the case of “nontagged Gαo wild-type (from UniProt P09471 1-354)”, the binding result is given as “binds weakly” in [8] and “binds” in test [6].
